Laboratory results from patent publication EP0070186B1, “Biologically active peptides” (CELLTECH LIMITED, priority 1981, dated 1985).
Not every detail of the peptide structures is certain; ends, links or a residue may be inferred. No end group written: not given here.

Key:
[1] = test system: anterior pituitary cell column; test: prolactin release from perfused anterior pituitary cell column (Example 3); format: cell-based, male Wistar rats; details: for prolactin released in excess of basal secretion, relative to the amount released by TRH (2.86x10-^5 M): 10 min pulse
[2] = test system: nephrectomized animals; test: effect on plasma calcium in nephrectomized animals; format: in vivo
[3] = specificity: effect on other plasma constituents; details: in vivo
[4] = test system: female Wistar rats; test: randomized bioassay, effect on plasma calcium after tail vein injection (Example 2); format: in vivo
Description: After preliminary experiments had shown that the time courses of the effects of PDN 21 and human calcitonin (hCT) on plasma calcium were similar, peptide in acetate buffer was injected into the tail vein of female Wistar rats (mean wt 45 g, range 43―48, Oxfordshire Laboratory Animal Colonies (1976) Ltd.) and blood was taken from the aorta after 30 min in a randomized bioassay (Macintyre, I. Galante, L. S. & Hillyard, C. J. in Handbuch der inneren MedizinVllIA(eds) Kuhlen- cordt, F. & Bartelheimer, H. 623-634 (Springer-Verlag, Heidelberg, 1980)). Plasma calcium was measured colormetrically by the method of (Gindler, E. M. & King, J. D. Amer. J.Clin. Path. 58, 376―382 (1972)), and the values confirmed by atomic absorption spectrophotometry. The results are shown graphically in Figure 3. Each point is the mean from three rats 0 PDN-21; A hCT (WHO 1st International Reference Preparation of Calcitonin Hormone for Bioassay, 70/234 supplied by the National Institute for Biological Standards and Control); DhCT+PDN-21 (800 ng PDN 21 was injected with each dose of calcitonin). […] Smoothed curves were fitted to the data by eye. Probit transformation allowed calculation of the doses giving 50% response (ED50). These were 0.71 MRC milliunits and 24 ng for hCT and PDN-21 respectively. Potencies were calculated in terms of hCT over the dose ranges where the log dose response is linear, yielding values of 0.017 milliunits hCT equivalent/ng PDN-21 and 5.11 milliunits hCT equivalent/milliunit hCT in the hCT+PDN-21 group. The "potencies" reflect only the relative effects of these materials on calcium levels over the linear part of the log dose response range. Three previous unrandomized experiments yielded essentially similar results.

[5] = test system: prelabelled mouse calvariae; test: inhibition of cell-mediated 45Ca release from prelabelled mouse calvariae in vitro (Example 4); format: cell-based; details: 48 hour mouse calvariae explants in culture; p=0.02 at the higher dose
[6] = test system: female Wistar rats; test: "calcitonin" bioassay, plasma calcium after intravenous injection (Example 1); format: in vivo; details: blood sampled from aorta after thirty minutes

| Compound | prolactin released in excess of basal secretion, relative to the amount released by TRH (2.86x10-^5 M) ([1]; 2.86x10^-6 M) | action on plasma calcium [2] | effect on plasma albumin [3] | effect on plasma phosphate [3] | effect on plasma potassium [3] | effect on plasma sodium [3] | potency in terms of hCT ([4]; over the dose range where the log dose response is linear) | maximal effect in lowering plasma calcium ([4]; rat, compared with calcitonin) | dose giving 50% response (ED50), plasma calcium ([4]; tail vein injection, blood after 30 min, probit transformation) | effect on 45Ca release from the prelabelled bones [5] | effect on plasma calcium [6] | prolactin released in excess of basal secretion, relative to the amount released by TRH (2.86x10-^5 M) ([1]; 2.86x10^-7 M) | potency in prolactin release on a molar basis ([1]; compared with TRH) |
| --- | --- | --- | --- | --- | --- | --- | --- | --- | --- | --- | --- | --- | --- |
| NC(=O)[C@@H]1CCCN1C(=O)[C@H](Cc1c[nH]cn1)NC(=O)[C@@H]1CCC(=O)N1 [TRH, thyrotropin releasing hormone, reference compound] | 50.3% | – | – | – | – | – | – | – | – | – | – | – | – |
| DMSSDLERDHRPHVSMPQNAN [PDN-21, Asp - Met - Ser - Ser - Asp - Leu - Glu - Arg - Asp - His - Arg - Pro - His - Val - Ser - Met - Pro - Gln - Asn - Ala - Asn] | 52.1% | still obvious | no effect | no effect | no effect | no effect | 0.017 milliunits hCT equivalent/ng PDN-21 | less than that produced by calcitonin | 24 ng | clear evidence of a direct effect | lowering of plasma calcium | 35.6% | about as potent as TRH |
